In paper PMC11612773 (2024):
No constants are given. Whether binding was seen depends on the method and setting. In cells and extracts the contact can be indirect. Some results given as binding are weak or reduced against the parent protein; the word gives no strength. Tags and fused reporters may be left off the sequences shown.

T1: LEA14 (LATE EMBRYOGENESIS ABUNDANT PROTEIN 14, dehydrin, At2G21490) split-YFP fusion (Arabidopsis thaliana) (UniProt Q96261)
T1 sequence: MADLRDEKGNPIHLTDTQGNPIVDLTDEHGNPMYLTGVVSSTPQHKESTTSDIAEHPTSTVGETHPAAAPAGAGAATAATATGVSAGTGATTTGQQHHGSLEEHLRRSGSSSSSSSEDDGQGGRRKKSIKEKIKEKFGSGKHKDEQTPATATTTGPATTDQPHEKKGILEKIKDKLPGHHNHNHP


How the values were obtained:
[1] = molecular target: T1, LEA14 (LATE EMBRYOGENESIS ABUNDANT PROTEIN 14, dehydrin, At2G21490) split-YFP fusion (Arabidopsis thaliana); assay: split reporter; split YFP Venus fusions (LEA14y:LEA14fp), stable transformation of Arabidopsis thaliana, embryos viewed
[2] = molecular target: T1, LEA14 (LATE EMBRYOGENESIS ABUNDANT PROTEIN 14, dehydrin, At2G21490) split-YFP fusion (Arabidopsis thaliana); assay: split reporter; split YFP Venus fusions, transient expression in Nicotiana benthamiana leaves by Agrobacterium infiltration, leaf disks viewed up to 5 days

Binder | binding [1] | binding [2]
LEA14 (LATE EMBRYOGENESIS ABUNDANT PROTEIN 14, dehydrin, At2G21490) split-YFP fusion (protein, UniProt Q96261 1-185) MADLRDEKGNPIHLTDTQGNPIVDLTDEHGNPMYLTGVVSSTPQHKESTTSDIAEHPTSTVGETHPAAAPAGAGAATAATATGVSAGTGATTTGQQHHGSLEEHLRRSGSSSSSSSEDDGQGGRRKKSIKEKIKEKFGSGKHKDEQTPATATTTGPATTDQPHEKKGILEKIKDKLPGHHNHNHP | binds | binds
…OPEPTIDE REPEAT PROTEIN 596 (PPR596, AT1G80270) split-YFP fusion (protein, UniProt Q9C977 70-596) SDQEEDDLEDGFSELEGSKSGQGSTSSDEDEGKLSADEEEEEELDLIETDVSRKTVEKKQSELFKTIVSAPGLSIGSALDKWVEEGNEITRVEIAKAMLQLRRRRMYGRALQMSEWLEANKKIEMTERDYASRLDLTVKIRGLEKGEACMQKIPKSFKGEVLYRTLLANCVAAGNVKKSELVFNKMKDLGFPLSGFTCDQMLLLHKRIDRKKIADVLLLMEKENIKPSLLTYKILIDVKGATNDISGMEQILETMKDEGVELDFQTQALTARHYSGAGLKDKAEKVLKEMEGESLEANRRAFKDLLSIYASLGREDEVKRIWKICESKPYFEESLAAIQAFGKLNKVQEAEAIFEKIVKMDRRASSSTYSVLLRVYVDHKMLSKGKDLVKRMAESGCRIEATTWDALIKLYVEAGEVEKADSLLDKASKQSHTKLMMNSFMYIMDEYSKRGDVHNTEKIFLKMREAGYTSRLRQFQALMQAYINAKSPAYGMRDRLKADNIFPNKSMAAQLAQGDPFKKTAISDILD | – | binds
SEED STORAGE ALBUMIN 4 (SESA4, AT4G27170) split-YFP fusion (protein, UniProt P15460 22-166) SVYRTVVEFDEDDASNPIGPIQKCQKEFQQDQHLRACQRWMRKQMWQGRGGGPSLDDEFDMEDDIENPQRRQLLQKCCSELRQEEPVCVCPTLRQAAKAVRFQGQQHQPEQVRKIYQAAKYLPNICKIQQVGVCPFQIPSIPSYY | – | binds
PLASTID-ENCODED RNA POLYMERASE-ASSOCIATED PROTEIN 12 (PAP12, AT5G24314) split-YFP fusion (protein, UniProt Q8VZV9 33-161) CGIQRDDNGRRVWRRRTLTKKDDMLRYKMQRVPFVEEQVRKIREVGKVMTMDIEQLLLREDNRFEFVNSVAAEATEYVDKNRDEYGGSKKAIFHVLSNRVNDLGFDRPEAYVEADPYKPGPGYLLEYYT | – | no binding
